# Results taken from PubChem BioAssay (NCATS).
# Values joined by “and” are separate entries in the source; they are usually repeats but may differ in a detail not shown here. Identical values can stand only once. Inconclusive results, whose numbers are uncertain, are shown with a selection of clear calls. A potency beside an inconclusive call is a rough fit, not a confirmed value. Active and inactive are the calls of the source. Unless noted, calls come from the whole dose curve; as a rule, active = well fitted curve in the direction sought with a large enough effect; inconclusive = small, poorly fitted or top-dose-only effect, or another doubt; inactive = no such curve, though single readings can be large; an effect the other way counts as inactive or inconclusive.
# Tests used:
# [1] = Quantitative High-Throughput drug screen in 47 multiple myeloma cell lines against the NCATS MIPE library collection: UTMC2_PLB cell viability assay (AID 1919868); details: CellTiter-Glo ATP luminescence, 48 h; viability (% of DMSO control): at 45.8 µM (top of the series); note: nearly all actives have a fitted effect of over 55% in size
# Summary of the method: (§1)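 500 cells/well; MIPE 4.0 drugs pin-transferred; 48 h, 37C, 5% CO2. CellTiter-Glo, 5 min RT, luminescence. Controls: DMSO 100%, media 0%.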
# [2] = Quantitative High-Throughput drug screen in 47 multiple myeloma cell lines against the NCATS MIPE library collection: PCM6_Riken cell viability assay (AID 1919870); details: CellTiter-Glo ATP, 48 h; viability (% of control): at 45.8 µM (top of the series); note: nearly all actives have a fitted effect of over 30% in size
# Summary of the method: as §1
# [3] = Quantitative High-Throughput drug screen in 47 multiple myeloma cell lines against the NCATS MIPE library collection: OPM2_DSMZ cell viability assay (AID 1919872); details: OPM2 myeloma viability, CellTiter-Glo ATP luminescence, 48 h; series mostly up to 45.8 µM; note: nearly all actives have a fitted effect of over 30% in size
# Summary of the method: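 We plated 500 myeloma cells per well, pinned in MIPE 4.0 compounds, and incubated for 48 hours at 37C. ATP was then quantified with CellTiter-Glo, with DMSO and media-only wells defining 100% and 0%.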
# [4] = Quantitative High-Throughput drug screen in 47 multiple myeloma cell lines against the NCATS MIPE library collection: KMS11_JCRBsus cell viability assay (AID 1919873); details: KMS11 myeloma viability, CellTiter-Glo ATP luminescence, 48 h; series mostly up to 45.8 µM; note: nearly all actives have a fitted effect of over 50% in size
# Summary of the method: as §1
# [5] = qHTS for identification of novel therapeutic agents for treatment of microphthalmiaassociated transcription factor (MiT) renal cell carcinoma (RCC) (AID 1963991; calls by dose curve); details: TFE3-RCC UOK109 viability, CellTiter-Glo, 48 h; active = Z-AUC below -0.8 in all three lines
# Summary of the method: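 Three TFE3-fusion RCC cell lines (UOK109, UOK124, UOK145), 500 cells/well, were exposed to the 1912-compound MIPE 4.0 library for 48 hours at 37 C. Viability was read by CellTiter-Glo luminescence, normalised to DMSO (100%) and empty wells (0%), with 11-concentration curve fits.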
# [6] = test system: HEK293; assay: Cytotoxic Profiling of Annotated Libraries Using Quantitative High-Throughput Screening (AID 1296008); details: Five cell lines viability, CellTiter-Glo ATP luminescence, 48-72 h; max response: hits give low values; note: nearly all actives have a fitted effect of over 60% in size; for max response: % is set by controls: 0 for no effect and ±100 for the full control effect
# Summary of the method: (§2)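 Cells exposed to compounds for 48 or 72 hr at 37 degrees Celsius. Viability read as ATP-coupled luminescence with CellTiter-Glo after 10 min at room temperature.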
# [7] = test system: NIH3T3; assay: as above; details: Five cell lines viability, CellTiter-Glo ATP luminescence, 48-72 h; max response: hits give low values
# Summary of the method: as §2
# [8] = test system: MCC-13; assay: qHTS assay to identify novel small-molecules to repurpose for Merkel cell carcinoma treatment (AID 1296009); details: MCC and control cell lines, CellTiter-Glo viability, 72 h; series mostly up to 46 µM; note: nearly all actives have a fitted effect of over 60% in size
# Summary of the method: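 CellTiter-Glo luminescence after 72 hr compound exposure at 37 degree celsius gave cell viability. Libraries NPC and MIPE were run as 8- and 11-point dose responses; RLUs normalized to DMSO (negative) and no-cell (cytotoxicity) controls.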
# [9] = Quantitative High-Throughput drug screen in 47 multiple myeloma cell lines against the NCATS MIPE library collection: PE2_PLB cell viability assay (AID 1919869); details: PE2_PLB myeloma cells viability, ATP luminescence, 48 h; series mostly up to 45.8 µM; note: nearly all actives have a fitted effect of over 35% in size
# Summary of the method: as §1
# [10] = Quantitative High-Throughput drug screen in 47 multiple myeloma cell lines against the NCATS MIPE library collection: RPMI8226_ATCC cell viability assay (AID 1919871); details: RPMI8226 myeloma viability, CellTiter-Glo ATP luminescence, 48 h; series mostly up to 45.8 µM; note: nearly all actives have a fitted effect of over 30% in size
# Summary of the method: as §1
# [11] = Quantitative High-Throughput drug screen in 47 multiple myeloma cell lines against the NCATS MIPE library collection: KMS28BM_JCRB cell viability assay (AID 1919874); details: CellTiter-Glo ATP, 48 h; series mostly up to 45.8 µM; note: nearly all actives have a fitted effect of over 35% in size
# Summary of the method: as §1
# Potency is the fitted concentration of half-maximal effect.
compound,measurement,setting,value
Cn1c(=O)c(F)c(Nc2ccc(I)cc2F)c2c(=O)n(C[C@@H](O)CO)cnc21,Potency,[1],"inconclusive: 0.0148 µM [cytotoxic, full curve, poor fit]"
same,Potency,[2],"inconclusive: 20.9 µM [cytotoxic, partial curve, poor fit]"
same,Potency,[3],"inconclusive: 4.69 µM [cytotoxic, full curve]"
same,Potency,[4],"inconclusive: 33.2 µM [cytotoxic, single point]"
same,Potency,[5],"inconclusive: 0.0332 µM [falling, full curve]"
same,Potency,[6],"inconclusive: 29.6 µM [inhibitor, single point]"
same,Potency,[7],"inconclusive: 2.35 µM [inhibitor, full curve]"
same,Potency,[8],"inconclusive: 0.469 µM [inhibitor, full curve]"
CNC(=O)c1cc(COc2nnc(Nc3ccc(Cl)cc3)c3ccoc23)ccn1,Potency,[1],"inconclusive: 0.0023 µM [rising, full curve, poor fit]"
same,Potency,[9],"inconclusive: 0.743 µM [cytotoxic, full curve, poor fit]"
same,Potency,[10],active: 20.9 µM
same,Potency,[3],"inconclusive: 26.4 µM [cytotoxic, single point]"
same,Potency,[4],"inconclusive: 18.7 µM [cytotoxic, partial curve]"
same,Potency,[11],"inconclusive: 20.9 µM [cytotoxic, partial curve]"
same,Potency,[5],"inconclusive: 20.9 µM [falling, partial curve]"
same,Potency,[6],"inconclusive: 8.33 µM [inhibitor, full curve, poor fit]"
same,max response,[7],inactive: -16.8%
CN(CCOc1ccc(NS(C)(=O)=O)cc1)CCc1ccc(NS(C)(=O)=O)cc1,Potency,[9],inactive
same,Potency,[2],inactive
same,Potency,[4],inactive
same,Potency,[11],inactive
same,outcome,[6],inactive
same,outcome,[7],inactive
CO[C@H]1/C=C\O[C@@]2(C)Oc3c(C)c(O)c4c(O)c(c5c(nc6cc(C)ccn65)c4c3C2=O)NC(=O)C(C)=CC=C[C@H](C)[C@H](O)[C@@H](C)[C@@H](O)[C@@H](C)[C@H](OC(C)=O)[C@H]1C,Potency,[1],"inconclusive: 5.26 µM [cytotoxic, full curve, poor fit]"
same,Potency,[9],"inconclusive: 0.235 µM [cytotoxic, full curve, poor fit]"
same,Potency,[2],"inconclusive: 14.8 µM [cytotoxic, partial curve, poor fit]"
same,Potency,[3],inactive
same,Potency,[4],inactive
same,Potency,[11],inactive
same,Potency,[6],"inconclusive: 37.2 µM [inhibitor, single point]"
Cc1nc2c([nH]1)CCN(C(=O)c1ccc(NC(=O)c3ccccc3-c3ccccc3)cc1)c1ccccc1-2,Potency,[1],"inconclusive: 0.526 µM [rising, full curve, poor fit]"
same,Potency,[9],"inconclusive: 37.2 µM [cytotoxic, single point]"
same,Potency,[2],"inconclusive: 37.2 µM [cytotoxic, single point]"
same,Potency,[10],"inconclusive: 33.2 µM [cytotoxic, single point]"
same,Potency,[4],"inconclusive: 29.6 µM [cytotoxic, single point]"
same,Potency,[6],"inconclusive: 37.2 µM [inhibitor, single point] and inconclusive: 18.4 µM [inhibitor, single point]"
N[C@@]1(C(=O)O)CS(=O)(=O)[C@H]2[C@H](C(=O)O)[C@H]21,Potency,[1],"inconclusive: 2.64 µM [cytotoxic, full curve, poor fit]"
same,Potency,[2],"inconclusive: 14.8 µM [cytotoxic, partial curve]"
same,Potency,[10],inactive
same,Potency,[11],inactive
same,Potency,[5],"inconclusive: 16.6 µM [falling, partial curve]"
same,Potency,[6],"inconclusive: 33.2 µM [inhibitor, single point]"
same,Potency,[8],inactive
CCC=CC[C@H]1C(=O)CC[C@@H]1CC(=O)OC,Potency,[1],"inconclusive: 0.209 µM [cytotoxic, full curve, poor fit]"
same,Potency,[9],"inconclusive: 29.6 µM [cytotoxic, single point]"
same,Potency,[10],"inconclusive: 7.43 µM [cytotoxic, partial curve, poor fit]"
same,Potency,[4],inactive
same,max response,[6],inactive: 3.57%
same,Potency,[7],"inconclusive: 33.2 µM [inhibitor, single point]"
COc1ccccc1N1CCN(CCN(C(=O)C2CCCCC2)c2ccccn2)CC1,Potency,[1],inactive
same,Potency,[9],"inconclusive: 11.8 µM [cytotoxic, partial curve, poor fit]"
same,Potency,[2],"inconclusive: 8.33 µM [cytotoxic, full curve, poor fit]"
same,Potency,[10],inactive
same,Potency,[4],inactive
same,Potency,[5],inconclusive: 29.6 µM
same,Potency,[6],"inconclusive: 29.1 µM [inhibitor, single point]"
CCCCC(C=O)NC(=O)C(CC(C)C)NC(=O)OCc1ccccc1 (stereo not drawn),Potency,[1],"inconclusive: 0.118 µM [cytotoxic, full curve, poor fit]"
same,Potency,[9],"inconclusive: 29.6 µM [cytotoxic, single point]"
same,Potency,[2],inactive
same,Potency,[10],"inconclusive: 13.2 µM [cytotoxic, partial curve, poor fit]"
same,Potency,[4],"inconclusive: 26.4 µM [cytotoxic, single point]"
same,Potency,[11],active: 23.5 µM
same,Potency,[5],inconclusive: 9.35 µM
same,Potency,[6],"inconclusive: 18.7 µM [inhibitor, partial curve]"
same,max response,[7],inactive: -21.8%
CN1C(C(=O)Nc2ccccn2)=C(O)c2ccccc2S1(=O)=O,Potency,[1],"inconclusive: 29.6 µM [cytotoxic, single point]"
same,Potency,[10],inactive
same,Potency,[4],inactive
same,Potency,[11],"inconclusive: 1.48 µM [rising, full curve, poor fit]"
same,Potency,[5],"inconclusive: 11.8 µM [falling, partial curve, poor fit]"
same,Potency,[6],"inconclusive: 4.18 µM [inhibitor, full curve, poor fit]"
same,Potency,[7],"inconclusive: 3.72 µM [inhibitor, full curve]"
O=C(C1CC1)N1CC[C@@H](Cn2c(-c3ccc(-c4ccc5occc5c4)cc3)nc3cnccc32)C1,Potency,[1],"inconclusive: 3.32 µM [cytotoxic, partial curve, poor fit]"
same,Potency,[9],"inconclusive: 14.8 µM [cytotoxic, partial curve, poor fit]"
same,Potency,[2],"inconclusive: 18.7 µM [cytotoxic, partial curve, poor fit]"
same,Potency,[10],inactive
same,Potency,[3],active: 20.9 µM
same,Potency,[4],"inconclusive: 18.7 µM [cytotoxic, partial curve]"
same,Potency,[11],"inconclusive: 16.6 µM [cytotoxic, partial curve, poor fit]"
same,Potency,[6],"inconclusive: 37.2 µM [inhibitor, single point]"
COc1cc(Nc2nc3ccccc3nc2NS(=O)(=O)c2ccc(NC(=O)c3ccc(C)c(OC)c3)cc2)cc(OC)c1,Potency,[1],"inconclusive: 16.6 µM [cytotoxic, partial curve, poor fit]"
same,Potency,[9],"inconclusive: 16.6 µM [cytotoxic, partial curve]"
same,Potency,[2],active: 2.35 µM
same,Potency,[10],"inconclusive: 20.9 µM [cytotoxic, partial curve, poor fit]"
same,Potency,[3],"inconclusive: 16.6 µM [cytotoxic, partial curve, poor fit]"
same,Potency,[11],inactive
same,Potency,[5],"inconclusive: 26.4 µM [falling, single point]"
same,Potency,[6],"inconclusive: 37.2 µM [inhibitor, partial curve, poor fit]"
CCCCC[C@H](O)C=C[C@H]1[C@H](O)CC(=O)[C@H]1CC=CCCCC(=O)O,Potency,[1],inactive
same,Potency,[9],active: 23.5 µM
same,Potency,[2],"inconclusive: 23.5 µM [cytotoxic, partial curve, poor fit]"
same,Potency,[10],"inconclusive: 18.7 µM [cytotoxic, partial curve, poor fit]"
same,Potency,[3],inactive
same,Potency,[4],"inconclusive: 16.6 µM [cytotoxic, partial curve, poor fit]"
same,Potency,[6],"inconclusive: 37.2 µM [inhibitor, single point]"
O=C(O)C(O)Cc1ccc(O)c(O)c1 (stereo not drawn),Potency,[1],"inconclusive: 8.33 µM [cytotoxic, partial curve, poor fit]"
same,Potency,[2],"inconclusive: 18.7 µM [cytotoxic, partial curve, poor fit]"
same,Potency,[10],active: 26.4 µM
same,Potency,[3],active: 11.8 µM
same,Potency,[4],"inconclusive: 33.2 µM [cytotoxic, single point]"
same,Potency,[11],"inconclusive: 33.2 µM [cytotoxic, single point]"
same,outcome,[6],inactive
COc1cc(C(C)C)c(Oc2cnc(NC(CO)CO)nc2N)cc1I,viability (% of DMSO control),[1],active: 201%
same,Potency,[10],active: 3.32 µM
same,Potency,[3],inactive
same,Potency,[11],inactive
same,Potency,[5],"inconclusive: 0.935 µM [falling, full curve, poor fit]"
same,max response,[6],inactive: -7.36%
CC1(C)S[C@H]2[C@H](NC(=O)[C@@H](N)c3ccc(O)cc3)C(=O)N2[C@@H]1C(=O)O,Potency,[1],"inconclusive: 37.2 µM [cytotoxic, single point]"
same,Potency,[10],"inconclusive: 16.6 µM [cytotoxic, partial curve, poor fit]"
same,Potency,[3],inactive
same,Potency,[5],"inconclusive: 0.833 µM [falling, full curve]"
same,Potency,[6],"inconclusive: 37.2 µM [inhibitor, partial curve, poor fit]"
c1cc(-c2sc(-c3ccncc3)c(-c3ccncc3)c2-c2ccncc2)ccn1,Potency,[1],"inconclusive: 4.18 µM [cytotoxic, full curve, poor fit]"
same,Potency,[2],"inconclusive: 8.33 µM [cytotoxic, partial curve]"
same,Potency,[10],inactive
same,Potency,[4],inactive
same,Potency,[5],"inconclusive: 37.2 µM [falling, single point]"
same,max response,[6],inactive: -5.01%
CCOC(=O)c1c(CSc2ccccc2)n(C)c2cc(Br)c(O)c(CN(C)C)c12,Potency,[1],"inconclusive: 2.35 µM [cytotoxic, full curve, poor fit]"
same,Potency,[3],"inconclusive: 18.7 µM [cytotoxic, partial curve]"
same,Potency,[5],inconclusive: 37.2 µM
same,Potency,[6],"inconclusive: 37.2 µM [inhibitor, single point]"
